Source: patent publication US12115193B2, “Methods of using RARγ agonists for cancer treatment” (Io Therapeutics, Inc., priority 2021, dated 2024)
Some results were stated once for a whole list of compounds, not compound by compound.

Molecular target: T1, RARα (Homo sapiens, UniProt P10276)
T1 construct: expression plasmids encoding the full-length receptors RARα and RARγ; expressed in transfected cells
T1 sequence (P10276 1-462): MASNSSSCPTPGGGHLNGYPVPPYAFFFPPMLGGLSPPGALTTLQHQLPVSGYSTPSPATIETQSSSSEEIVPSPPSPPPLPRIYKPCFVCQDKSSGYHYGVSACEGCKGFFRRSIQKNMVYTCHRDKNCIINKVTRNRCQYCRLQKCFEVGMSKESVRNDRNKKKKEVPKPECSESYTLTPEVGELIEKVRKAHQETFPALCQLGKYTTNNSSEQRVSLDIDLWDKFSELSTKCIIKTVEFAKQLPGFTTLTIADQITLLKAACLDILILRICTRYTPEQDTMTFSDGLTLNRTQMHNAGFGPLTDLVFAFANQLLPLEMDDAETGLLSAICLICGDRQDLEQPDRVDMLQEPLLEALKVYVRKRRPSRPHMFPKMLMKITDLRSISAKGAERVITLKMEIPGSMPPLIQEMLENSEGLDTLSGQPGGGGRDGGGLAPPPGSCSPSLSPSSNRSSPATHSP
Test: RARα transactivation assay (luciferase reporter)
Type: cell-based

SMILES | transactivation for RARα (across the whole concentration range (0.05 to 3320 nM)) | transactivation of RARα (at concentrations of ≤25 nM)
CCc1oc2ccc(C(/C=C/c3ccc(C(=O)O)cc3F)=N/O)cc2c1C(C)(C)C [GA1E, 4-((1E,3E)-3-(3-(tert-butyl)-2-ethyl-benzofuran-5-yl)-3-(hydroxyimino)prop-1-en-1-yl)-3-fluorobenzoic acid] | less than 10% | –
CC1(C)CCC(C)(C)c2cc(C(/C=C/c3ccc(C(=O)O)cc3F)=N/O)ccc21 [GA2E, 3-fluoro-4-((1E,3E)-3-(hydroxyimino)-3-(5,5,8,8-tetramethyl-5,6,7,8-tetrahydronaphthalen-2-yl)prop-1-en-1-yl)benzoic acid] | – | less than 10%
